# Data from PubChem BioAssay AID662 (National Center for Advancing Translational Sciences (NCATS), 2007).
# Some of the results follow. Further columns of the screen follow, without active or inactive calls. The list favours compounds with an active or inconclusive main result. The note in brackets gives the kind of curve behind each potency; many fits are weak.
# Test: Cell signaling CRE-BLA (Fsk stim)
# Conditions: CHO CRE-bla reporter (cAMP response element driving beta-lactamase), forskolin EC10, beta-lactamase ratio; measured here: 460 nm blue channel
# Summary of the method: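 Reporter-gene assay: CHO cells with beta-lactamase behind cAMP responsive elements, co-treated with compound and EC10 NKH 477 for 3 hours at 37 degrees Celsius. Activity came from the 460/530 nm CCF4 emission ratio.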
row,Structure (SMILES),AC50
1,O=C(CC1COc2ccccc2O1)NC1CCCCC1 (configuration not stated),"0.00631 µM [falling, full curve]"
2,COC(=O)CN(c1ccc(C)c(Cl)c1)S(C)(=O)=O,"0.316 µM [rising, partial curve]"
3,CCSc1nnc(-c2ccc(Cl)cc2Cl)o1,"2.51 µM [falling, partial curve, poor fit]"
4,Cc1onc(-c2ccccc2)c1C(=O)Nc1sc2c(c1C#N)CCC(C)C2 (configuration not stated),"2.51 µM [rising, full curve]"
5,O=C(CC1C(=O)NCCN1C(=O)Nc1ccccc1)Nc1ccc2c(c1)OCCO2 (configuration not stated),"3.16 µM [falling, single point]"
6,CCOC(=O)c1ccc2c(c1)nc(SCC(=O)c1ccco1)n2CC,"6.31 µM [rising, single point]"
7,CC1CN(C(=O)c2cnn3c(C(F)F)cc(-c4ccccc4)nc23)CC(C)O1 (configuration not stated),"25.1 µM [rising, single point]"
8,CCOC(=O)C1CCN(S(=O)(=O)c2cccc(-c3cn4ccccc4n3)c2)CC1,"12.6 µM [rising, partial curve]"
9,COc1ccc(-c2ccc(-c3noc(C(C)C)n3)c(OC)n2)cc1,"7.94 µM [rising, partial curve]"
10,O=c1ccc2c(OCCCCc3ccccc3)c3ccoc3cc2o1,"15.8 µM [rising, partial curve]"
11,CCOc1cc(C(=O)NCC(C)CN(C)C)cc(OCC)c1OCC (configuration not stated),"0.0158 µM [falling, full curve, poor fit]"
12,COc1ccc(OC)c(-n2c(N)c(C(=O)NCC3CCCO3)c3nc4ccccc4nc32)c1 (configuration not stated),"12.6 µM [rising, partial curve]"
13,COCCn1c(=O)c(-c2ccc(Cl)cc2)nc2cnc(N3CCOCC3)nc21,"3.16 µM [rising, partial curve]"
14,CCOC(=O)c1c(NC(=O)c2ccco2)sc2c1CCCC2,"10 µM [rising, partial curve]"
15,Cc1ccc2nc(-c3cccc(NC(=O)c4ccc5c(c4)OCCO5)c3)oc2c1,"7.94 µM [falling, partial curve]"
16,CC[C@]1(O)C[C@H]2CN(CCc3c([nH]c4ccccc34)[C@](C(=O)OC)(c3cc4c(cc3OC)N(C)[C@@H]3[C@](O)(C(=O)OC)[C@H](OC(C)=O)[C@]5(CC)C=CCN6CC[C@]43[C@@H]65)C2)C1,"0.501 µM [rising, full curve]"
17,C=CCn1c(O)c(C(CC)=NCc2cccnc2)c(=O)[nH]c1=O,"15.8 µM [rising, partial curve]"
18,CCOC(=O)CN1C(=O)C(CC)Oc2ccc(Cl)cc21 (configuration not stated),"12.6 µM [rising, single point]"
19,Cn1cc(-c2nc3cncnc3n(C3CC3)c2=O)c2ccccc21,"12.6 µM [rising, partial curve]"
20,C=CCNc1oc(-c2ccc(OCC)cc2)nc1C#N,"12.6 µM [rising, partial curve]"
21,Cc1csc(N(C(=O)c2cccc(S(=O)(=O)N(C)C)c2)c2ccccc2)n1,"10 µM [rising, partial curve]"
22,O=C(Cc1cccs1)N1CCC(c2nc3c(nnn3Cc3ccccc3Cl)c(=O)[nH]2)CC1,"12.6 µM [rising, single point]"
23,CSc1nc2sc3c(c2c(=O)n1C)CCC(C)C3 (configuration not stated),"0.398 µM [rising, partial curve]"

row,Structure (SMILES),AC50
1,CCCCOc1ccc(C(=O)O)cc1,"0.126 µM [falling, single point]"
2,O=C(c1cc2c(s1)CCCCC2)N1CCN(c2ncccn2)CC1,"10 µM [rising, partial curve]"
3,Cc1cc(NC(=O)c2cc3n(n2)C(C(F)(F)F)CC(c2ccco2)N3)n(-c2ccccc2)n1 (configuration not stated),"10 µM [rising, single point]"
4,Cc1ccc(C2CC(C(F)(F)F)n3ncc(C(=O)NCc4ccco4)c3N2)cc1 (configuration not stated),"12.6 µM [falling, single point]"
5,O=C(O)C1=CCNCC1,"31.6 µM [falling, single point]"
6,COCCCn1c2nc3ccccc3nc2c2c(=O)n(Cc3ccc(Cl)cc3)c(C)nc21,"0.501 µM [rising, full curve, poor fit]"
7,COC(=O)C1CCN(C(=O)CSc2nnc(-c3ccncc3)o2)CC1,"0.00316 µM [falling, full curve, poor fit]"
8,Cc1nc(NC(C)c2ccccc2)c2oc3ccccc3c2n1 (configuration not stated),"12.6 µM [rising, single point]"
9,Cc1ccc(Cn2c3ccccc3c3cn[nH]c(=O)c32)cc1,"1.58 µM [rising, full curve, poor fit]"
10,CCCn1c(C)nc2c(c1=O)c1nc3ccccc3nc1n2CCc1ccccc1,"10 µM [rising, partial curve]"
11,CCn1c(=O)[nH]c2ccccc21,"31.6 µM [falling, single point]"
12,COc1ccc(Nc2nnc(Cc3ccccc3)c(=O)[nH]2)c(OC)c1,"12.6 µM [falling, partial curve, poor fit]"
13,C=CCSc1nc2ccccc2c(=O)[nH]1,"3.98 µM [rising, single point]"
14,CCN(CC)c1nc(C#N)nc(N(CC)CC)n1,"10 µM [rising, partial curve]"
15,COc1ncc2nc(-c3cccc(C#N)c3)c(=O)n(CCC#N)c2n1,"6.31 µM [rising, partial curve]"
16,C=CCn1c(SCC(=O)Nc2cc(C)nn2-c2ccccc2)nnc1C1CCCCC1,"3.98 µM [falling, partial curve]"
17,CCCCNC(=O)c1ccc2c(c1)N(CC)C(=O)CS2,"15.8 µM [rising, single point]"
18,CCOC(=O)CNC(=O)CSc1nc2cccnc2n1C1CCCCC1,"15.8 µM [rising, partial curve]"
19,COc1ccccc1CNc1ccnc(-c2cccnc2)n1,"7.94 µM [rising, partial curve]"
20,O=C(C1CCN(S(=O)(=O)c2cccc3cccnc23)CC1)N1CC=C(c2ccccc2)CC1,"12.6 µM [falling, partial curve]"
21,O=C(c1ccc2nc(-c3ccco3)c(-c3ccco3)nc2c1)N1CCN(c2ccccc2)CC1,"10 µM [rising, single point]"
22,O=C(Nc1ccccc1C(F)(F)F)c1cc(-c2cccc(O)c2)on1,"1.26 µM [falling, partial curve]"
23,O=C(CSc1ncn[nH]1)c1ccco1,"0.1 µM [falling, single point]"

# Sorted by molar mass (falling): some entries from above.
row,Structure (SMILES),AC50
19,COc1ccccc1CNc1ccnc(-c2cccnc2)n1,"7.94 µM [rising, partial curve]"
14,CCN(CC)c1nc(C#N)nc(N(CC)CC)n1,"10 µM [rising, partial curve]"
11,CCn1c(=O)[nH]c2ccccc21,"31.6 µM [falling, single point]"

# Carrying on.

row,Structure (SMILES),AC50
1,CCCCOn1c(C)c(C(=O)OCC)c2c3nonc3ccc21,"10 µM [rising, partial curve]"
2,O=C(CCN1C(=O)C2C3C=CC(C3)C2C1=O)NCC1CCCO1 (configuration not stated),"0.0398 µM [falling, full curve, poor fit]"
3,Cc1c(NC(=O)c2ccc3c(c2)OCO3)c(=O)n(-c2ccccc2)n1C,"1 µM [falling, full curve]"
4,CC(=O)NC12CC3CC(C1)CC(C(=O)OCC(=O)c1ccc4c(c1)OCCO4)(C3)C2,"5.01 µM [falling, single point]"
5,COc1ccc(OC)c(N=c2oc3cc(O)ccc3cc2C(N)=O)c1,"10 µM [rising, partial curve]"
6,Cc1cc(S(=O)(=O)NC2CCCCC2)c(C)s1,"0.00794 µM [falling, full curve, poor fit]"
7,Cc1nc(Nc2nc(-c3ccccc3)cc(=O)[nH]2)nc2ccccc12,"10 µM [rising, partial curve]"
8,CC(=O)O[C@]1(C)N=NC2(CCCCC2)O1,"0.01 µM [falling, full curve, poor fit]"
9,N=c1ccn(Cc2ccc(Cl)c(Cl)c2)cc1,"15.8 µM [falling, partial curve]"
10,CCOC(=O)c1sc2ccc(S(=O)(=O)N3CCOCC3)cc2c1N,"10 µM [rising, single point]"
11,CCOc1ccc(-n2c(=O)c3c4c(sc3n(CC(=O)NCc3ccco3)c2=O)CCC4)cc1,"3.16 µM [falling, partial curve]"
12,Cc1ccc(S(=O)(=O)c2n[nH]n3c2nc(=O)c2ccccc23)cc1,"3.16 µM [rising, partial curve]"
13,COc1ccc2oc(-c3ccc(O)cc3)cc(=O)c2c1,"10 µM [rising, partial curve]"
14,COc1ccc(OC)c(Nc2nc(-c3sc(C)nc3C)cs2)c1,"15.8 µM [falling, single point]"
15,CCOC(=O)Cn1c(=O)oc2cc(S(=O)(=O)Nc3cc(OCC)ccc3OCC)ccc21,"6.31 µM [rising, single point]"
16,Cc1cc(Oc2ccccc2)nc(-c2ccccc2)n1,"0.0501 µM [falling, partial curve, poor fit]"
17,CCOC(=O)c1c(C)n(C)c2ccc(OC(C)C(=O)OC)cc12 (configuration not stated),"12.6 µM [rising, single point]"
18,COc1cccc2c1C(=O)c1c(O)c3c(c(O)c1C2=O)C[C@](O)(C(C)=O)C[C@H]3O[C@@H]1C[C@H](N)[C@H](O)[C@H](C)O1,"5.01 µM [rising, partial curve]"
19,NCCc1nnc(SCc2c(F)cccc2Cl)o1,"2.51 µM [falling, partial curve]"
20,CN(Cc1ccccc1)c1nc2c(c(=O)[nH]c(=O)n2C)n1Cc1ccccc1,"7.94 µM [rising, partial curve]"
21,COc1ccccc1NC(=O)N(Cc1cc2cc(OC)c(OC)cc2[nH]c1=O)CC1CCCO1 (configuration not stated),"10 µM [rising, partial curve]"
